In the supplement of paper PMC5949888:
Most values lie at the floor of the assay. Slopes are relative: functional sequences can read slightly below zero.

tested on: Saccharomyces cerevisiae PS128 hsf1 delta, HSF1(1-493) fusion; experiment: growth estimate (transactivation domain function in HSF1 fusion, heat-shock survival) (a.u. (slope of normalised read count over time)); higher = stronger growth at 37°C, i.e. more transactivation activity; details: library: random library
Procedure: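 Random 60-nt DNA library encoding peptides of up to 20 aa, fused to the C-terminus of yeast HSF1 residues 1-493 (C-terminal TAD deleted) and expressed from the native HSF1 promoter on a CEN plasmid in hsf1-deleted S. cerevisiae PS128. Cells were selected at 37°C on -trp 5-FOA plates for 0, 2, 4, 6 and 8 days and amplicons were sequenced. Growth estimate is the slope of a robust linear fit of total-sum-normalised read counts (normalised to the first time point) over time, using at least 2 replicates. Sequences are classed functional (TAD activity) above a threshold of -0.13, set from stop-codon control sequences.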

Substance	growth estimate
GFPLRVERRLSELARSSHHR	< -0.25
GFPQLGTFGRAPEVVSPRRD	< -0.25
GFQLW	< -0.25
GFRLTSGLARKPGDSSLRSG	-0.195
GFRPSFLLM	< -0.25
GFRTVNGRLDCSEGA	< -0.25
GFSLVWDSPLL	-0.079
GFSRVEELVITFSDLSLELR	< -0.25
GFSVKPVNI	-0.18
GFVAPQVVQGS	< -0.25
GFVILLVGTHRSVLGFDRAT	< -0.25
GFVNQTCWPRQVNQYDAYQW	< -0.25
GFVRICMSIQHLGTD	-0.246
GFVTGSWSGFHGRFRHCAPS	< -0.25
GFVTIRMLSQRITWLA	< -0.25
GFWVAMRLKGPMQN	< -0.25
GGAGQSRPGRVGV	< -0.25
GGAHRILCCVRWRTGSGPRV	< -0.25
GGCHWNPRLALKGQSTIGQK	< -0.25
GGCMQENLCL	< -0.25
GGDARDPTVSFLIRCIPSSI	< -0.25

Substance	growth estimate
GGDLQQLGRIPTKYFDNEDS	< -0.25
GGDRTPGGLTFSHYWGSTQS	< -0.25
GGDSNFPARLTSSGAKYSDS	< -0.25
GGDYPLYKDGRGTVDDTLGW	< -0.25
GGE	< -0.25
GGFEENRQGLGLNAM	< -0.25
GGFRARTYHLDRHDSTSCTY	< -0.25
GGFVWRRRLRVHIKLPLDED	< -0.25
GGG	< -0.25
GGGESACGPETRWLAVSVVR	< -0.25
GGGGSVCAGSERSPPAKRYT	< -0.25
GGGIPEGLEDGPYRINYIGR	< -0.25
GGGLFLMGRYVEFEYDFSGL	< -0.25
GGGNDRARLIQGSSFGVRCY	-0.245
GGGRHSTA	< -0.25
GGGWISGEGYS	-0.246
GGGYTRGQLFER	< -0.25
GGH	< -0.25
GGHLQYFVASEEWQTWCWRG	< -0.25
GGIDSCPSIP	< -0.25
GGIL	< -0.25

Substance	growth estimate
GGITKNSVKSSIRVLS	< -0.25
GGIVLTRL	< -0.25
GGIWSILRTTQLLGDARTQS	< -0.25
GGKGYLQID	< -0.25
GGKVLSYRRALTFPLTLAGR	< -0.25
GGLAS	< -0.25
GGLDPRVAA	0.183
GGLDVRVVRYQILHRD	< -0.25
GGLGSLAYVEPILACYLAAS	< -0.25
GGLHGPIKLIRKSVGKS	< -0.25
GGLLNPFLWSK	< -0.25
GGLMSEALFEQRENCSERSF	< -0.25
GGLRVG	< -0.25
GGLVR	< -0.25
GGPALVLYFCSRPGQTPRSS	< -0.25
GGPFCGLLPPSQRDYESPIF	< -0.25
GGPP	< -0.25
GGPSIYSWLRAYDAFWRSNP	< -0.25
GGQC	< -0.25
GGQL	< -0.25
GGQSSSVQ	< -0.25

Substance	growth estimate
GGRDVETMKTSEQAHVRPR	< -0.25
GGRKRPCPTATRTTQRIRL	< -0.25
GGRPGSD	< -0.25
GGRRISAGEAAM	< -0.25
GGRRPGTSRVRSSTEK	< -0.25
GGSAKSQH	< -0.25
GGSCGGVAQSLAEIPKTFPR	< -0.25
GGSGVVSPIELCPNAMGLCS	< -0.25
GGSLGEDVEVAIMGIAS	< -0.25
GGSNYGLLHPVV	< -0.25
GGTASACITTVRG	< -0.25
GGTCGRHGRARFRASLIEGQ	< -0.25
GGTPNFFSSWSVKSTTTQFE	< -0.25
GGTSCGFLTQ	< -0.25
GGTTLEHACLMRVDSCRLRR	< -0.25
GGTYRELTECGRSDPTFQPF	< -0.25
GGVAYDFD	< -0.25
GGVAYIYT	< -0.25

Six entries from above, bar-delimited:
Substance | growth estimate
GGRKRPCPTATRTTQRIRL | < -0.25
GGSAKSQH | < -0.25
GGSLGEDVEVAIMGIAS | < -0.25
GGTASACITTVRG | < -0.25
GGTYRELTECGRSDPTFQPF | < -0.25
GGVAYDFD | < -0.25
